Measured values as given in PubChem BioAssay AID1688 (National Center for Advancing Translational Sciences (NCATS), 2009).
About 2,400 (1.1%) of roughly 220,000 compounds were called active. The inconclusive results got no clear call from the source; some entries with a clear call stand among them for comparison. Calls come from the whole dose curve; as a rule, active = well fitted inhibition curve with a large enough effect; inconclusive = small, poorly fitted or top-dose-only effect, or effect the other way; inactive = no such curve, though single readings can be large or run the other way. Potencies of inconclusive entries are doubtful fits and often do not repeat.
% is set by controls: 0 for no effect and ±100 for the full control effect; potency is the fitted concentration of half-maximal effect.

Experiment: qHTS Multiplex Assay to Identify Dual Action Probes in a Cell Model of Huntington: Aggregate Formation (GFP); note: nearly all actives have a fitted effect of over 60% in size
Details: PC12 HttQ103-GFP aggregates, Acumen cytometry, 40 h; activity change, negative = inhibition: at 46.1 µM (top of the series) unless noted
How it was run: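 PC12/HTTQ103-GFP, ecdysone-inducible; teb 100 nM; cpd qHTS titration; GFP aggregates read on laser cytometer, Ex 488/Em 500-530 nm.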
For `COc1ccc(/C=C(\C#N)C(=O)NCC2CCCO2)cc1OC` (stereo not given), the “activity change, negative = inhibition” value was inactive: -5.12%. For `S=C(c1ccc(Cl)cc1)N1CCN(Cc2ccccc2)CC1`, the activity change, negative = inhibition was inactive: -6.23% [at 9.22 µM]. With `Cn1cccc1C(=O)c1cccc([N+](=O)[O-])c1` the “activity change, negative = inhibition” value was inactive: -10.2%. In the case of `COc1cc(OC)c(C2=NOC(C(=O)N3CCc4ccccc4C3)C2)cc1Cl` (stereo not given), the Potency is reported as inconclusive: 35.5 µM [inhibitor, single point]. In the case of `CC(Nc1nc(-c2ccc3c(c2)NC(=O)CO3)cs1)c1ccccc1` (stereo not given), the Potency is reported as inconclusive: 25.1 µM [inhibitor, single point]. With `COc1cc(C(C[N+](=O)[O-])c2c(N)n(C)c(=O)n(C)c2=O)ccc1O` (stereo not given) the Potency was inconclusive: 10 µM [inhibitor, single point]. For `CCOc1ccc(OCC)c(NC(=O)CSc2nnc(-c3cccnc3)o2)c1`, the Potency was inconclusive: 0.355 µM [activator, partial curve]. In the case of `CCCCCC(=O)c1c(C)[nH]c(C(=O)OCC)c1C`, the Potency is reported as inconclusive: 35.5 µM [inhibitor, single point]. In the case of `Cn1c(=O)n(Cc2ccccc2)c(=O)c2c1nc1n2CCCN1CCc1ccccc1`, the Potency is reported as inconclusive: 22.4 µM [inhibitor, single point]. For `Cc1cc(C)cc(Oc2nc(-c3ccccc3)cc(C)c2S(C)(=O)=O)c1`, the “activity change, negative = inhibition” value was inactive: -14.2%. With `Cc1cc(C)cc(N(CCC(=O)Nc2nnc(C3CC3)s2)S(=O)(=O)c2ccc(Cl)cc2)c1` the “activity change, negative = inhibition” value was inactive: -4.13%. In the case of `Cc1cccc(NC(=O)Cn2cnc3c(oc4ccccc43)c2=O)c1C`, the Potency is reported as inconclusive: 0.355 µM [activator, full curve, poor fit]. With `O=C(c1cc(C(=O)NCCc2ccccc2)c(=O)n(CCc2ccccc2)c1)c1cc(Cl)ccc1O` the Potency was inconclusive: 20 µM [inhibitor, single point]. For `O=C(COc1ncnc2c(Cl)cc(Cl)cc12)Nc1cc([N+](=O)[O-])ccc1Cl`, the “activity change, negative = inhibition” value was inactive: 17.2%. With `O=[N+]([O-])c1ccc(N/N=C/c2c[nH]c3ccccc23)cc1` the “activity change, negative = inhibition” value was inactive: 5.8%. For `Cc1nc2cc(NCc3cccs3)ccc2n1C`, the Potency was inconclusive: 35.5 µM [inhibitor, single point]. In the case of `Cc1ccccc1NC(=S)NCCC(c1ccccc1)c1ccccc1`, the Potency is reported as inconclusive: 22.4 µM [inhibitor, single point]. For `COc1ccc(C(=O)NCc2nnc(SCC(=O)N3CCC(C)CC3)o2)cc1`, the “activity change, negative = inhibition” value was inactive: -0.507%. For `CC(C)CC(=O)O/N=C1\C(=O)N(Cc2ccc(Cl)cc2)c2ccc([N+](=O)[O-])cc21`, the Potency was inconclusive: 10 µM [inhibitor, single point]. With `COc1ccc(OCC#CCN2CC(C)OC(C)C2)cc1` (stereo not given) the “activity change, negative = inhibition” value was inactive: 13.7%. For `CCOc1cc(N2CCOCC2)c(OCC)cc1NC(=O)CN1CCCC1`, the “activity change, negative = inhibition” value was inactive: -13.8%. For `O=C(OCc1ccccc1)Oc1cncc(C(=O)O)c1`, the Potency was inconclusive: 2.82 µM [inhibitor, partial curve]. With `Cc1cc([N+](=O)[O-])nn1CC(=O)N/N=C/c1ccccc1Br` the activity change, negative = inhibition was inactive: 11% [at 9.22 µM]. In the case of `Cc1ccccc1-c1nc(S(=O)(=O)c2ccc(Br)cc2)c(NCc2cccnc2)o1`, the Potency is reported as inconclusive: 22.4 µM [inhibitor, single point]. For `CC(C)n1nc(C(=O)Oc2cccc(Cl)c2Cl)c2ccccc2c1=O`, the Potency was inconclusive: 0.501 µM [inhibitor, partial curve, poor fit]. In the case of `O=C(Nc1ccc(Cl)c(S(=O)(=O)N2CCOCC2)c1)c1ccc(OCC2CCCO2)cc1` (stereo not given), the Potency is reported as inconclusive: 15.8 µM [inhibitor, single point]. For `NC(=S)n1[nH]c(-c2ccc([N+](=O)[O-])cc2)c(N=Nc2ccc(Cl)cc2)c1=O`, the Potency was active: 7.94 µM. For `CCOC(=O)CC(=O)CSc1ccc2nnc(-c3ccccc3)n2n1`, the Potency was inconclusive: 11.2 µM [inhibitor, partial curve]. For `Cc1ccc(S(=O)(=O)N2CCN(S(=O)(=O)N(C)C)CC2)cc1`, the Potency was inconclusive: 0.562 µM [activator, partial curve, poor fit]. For `O=C1c2ccccc2C(=O)C1Cc1cccc2ccccc12`, the “activity change, negative = inhibition” value was inactive: -6.17%. In the case of `CC(=O)c1c(C)nc2ccccn12`, the “activity change, negative = inhibition” value is reported as inactive: -16.7%. For `Cc1cc(C)cc(N(C(=O)CNS(=O)(=O)c2ccccc2)C(C(=O)NCc2ccccc2)c2ccc(C)o2)c1` (stereo not given), the Potency was inconclusive: 22.4 µM [inhibitor, single point]. In the case of `Cc1c(C(=O)N2CCN(C)CC2)oc2ccc(S(=O)(=O)N3CCOCC3)cc12`, the Potency is reported as inconclusive: 4.47 µM [inhibitor, partial curve]. With `CCOc1ccc(CCNC(=O)c2ccc3nc(N4CCOCC4)sc3c2)cc1OCC` the activity change, negative = inhibition was inactive: 29.4% [at 9.22 µM]. In the case of `Cc1ccc(OCc2nnc(SCc3cc(=O)[nH]c4ccccc34)n2-c2ccccc2)cc1`, the Potency is reported as inconclusive: 35.5 µM [inhibitor, single point]. For `CC(=O)NC(=C(Cl)Cl)S(=O)(=O)c1ccccc1`, the Potency was inconclusive: 35.5 µM [inhibitor, single point]. For `CCOC(=O)C1CCCN(C(=O)c2sc3nc(C)nc(N(CC)CC)c3c2C)C1` (stereo not given), the “activity change, negative = inhibition” value was inactive: -0.0528%. For `Cc1cccc(C(=O)NC(=S)Nc2ccc(S(=O)(=O)N3CCCCC3)cc2)c1`, the Potency was inconclusive: 35.5 µM [inhibitor, single point]. For `O=c1c2ccccc2nc2c3ccccc3c(NCCO)nn12`, the “activity change, negative = inhibition” value was inactive: -3.08%. In the case of `CC(C(N)=O)N1C(=O)c2cccc3cccc1c23` (stereo not given), the Potency is reported as inconclusive: 35.5 µM [activator, single point]. For `O=C(Nc1ccc(S(=O)(=O)Nc2ncccn2)cc1)c1ccc(F)c(S(=O)(=O)N2CCOCC2)c1`, the activity change, negative = inhibition was inactive: 19.5% [at 9.22 µM]. For `Cc1cc2nc(Sc3c([N+](=O)[O-])nc(C)n3Cc3ccccc3)[nH]c2cc1C`, the “activity change, negative = inhibition” value was inactive: 0.91%. In the case of `CCOc1ccc(/C=N/OCC(=O)NC(c2ccccc2)c2ccccc2)cc1`, the Potency is reported as inconclusive: 22.4 µM [inhibitor, single point]. In the case of `COc1ccc(CNCC(O)COc2cccc3c2OC(C)(C)C3)cc1` (stereo not given), the Potency is reported as inconclusive: 7.94 µM [inhibitor, partial curve]. With `O=S(=O)(Nc1cc(Cl)ccc1N1CCCCC1)c1cccs1` the Potency was inconclusive: 35.5 µM [inhibitor, single point].
